In the supplement of paper PMC3334620:
Whole data set: some 33,000 sequences, median “E-score (-0.5 to 0.5)” near -0.016, cut for the highest 2% near 0.3. The list shows a part of the results.

These sequences were tested against T1, Yer184c (UniProt P39961) (assay: PBM E-score (8-mer binding enrichment) (E-score (-0.5 to 0.5)); higher = stronger / more preferred TF binding). Settings: protein concentration: 100 nM; construct: GST-full length.
T1 sequence: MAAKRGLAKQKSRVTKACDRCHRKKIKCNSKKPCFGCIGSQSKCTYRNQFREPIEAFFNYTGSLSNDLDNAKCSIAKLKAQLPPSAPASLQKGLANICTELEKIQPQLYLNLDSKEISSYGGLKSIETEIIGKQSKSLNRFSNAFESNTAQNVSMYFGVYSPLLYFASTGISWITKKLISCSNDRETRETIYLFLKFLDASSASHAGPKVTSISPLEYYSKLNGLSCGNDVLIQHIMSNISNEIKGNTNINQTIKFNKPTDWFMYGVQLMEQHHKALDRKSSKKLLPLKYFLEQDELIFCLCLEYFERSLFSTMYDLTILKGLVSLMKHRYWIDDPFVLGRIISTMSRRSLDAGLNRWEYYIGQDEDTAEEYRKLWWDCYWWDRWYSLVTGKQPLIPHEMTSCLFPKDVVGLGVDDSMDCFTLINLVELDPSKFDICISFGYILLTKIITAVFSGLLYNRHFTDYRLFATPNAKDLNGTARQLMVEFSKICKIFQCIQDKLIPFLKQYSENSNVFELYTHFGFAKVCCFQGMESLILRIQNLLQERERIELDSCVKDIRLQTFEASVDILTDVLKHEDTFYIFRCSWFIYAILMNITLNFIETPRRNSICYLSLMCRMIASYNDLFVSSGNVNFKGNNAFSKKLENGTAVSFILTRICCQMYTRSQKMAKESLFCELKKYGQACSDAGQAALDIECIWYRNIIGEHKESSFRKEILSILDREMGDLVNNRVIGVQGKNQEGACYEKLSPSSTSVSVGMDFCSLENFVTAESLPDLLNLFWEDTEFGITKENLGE
How it was run: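 Each ungapped eight-base word and its reverse complement, pooled, received an E-score from the Universal PBM Analysis Suite. Underlying scans, normalised with masliner, recorded fluorescent anti-GST bound to GST-tagged yeast transcription factors. These were applied at about 100-200 nM to universal all-10-mer Agilent arrays double-stranded by primer extension.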

| Sequence | PBM E-score |
| --- | --- |
| CCTGGCTC | -0.0961 |
| AGTGACCG | -0.011 |
| ACTCACGG | 0.141 |
| CAGTAAGA | 0.0505 |
| ACCGTGGA | -0.0641 |
| CCGACGAA | 0.261 |
| CGCGTGGA | -0.165 |
| CGTGGCAG | -0.0489 |
| GTTAGGGA | -0.114 |
| ATGACGAC | -0.0244 |
| GTCAACCA | -0.122 |
| ACTAAACA | -0.0326 |
| CGTCATTA | -0.0467 |
| CGTTTATC | 0.15 |
| ATCATCCC | 0.0551 |
| AACCAACA | 0.138 |
| ATAGTGGG | -0.0876 |
| ACCACGCG | -0.0749 |
| GCTGCCCC | -0.231 |
| AGGCATGG | -0.0826 |
| ACCCATAA | -0.0176 |
| CAGTTAAC | 0.156 |
| GCCCCCTA | -0.259 |
| AGATCGAG | 0.0688 |
| CACGCTAA | 0.0554 |

| Sequence | PBM E-score |
| --- | --- |
| CGCCCGCA | -0.0897 |
| AGTGCCTG | -0.132 |
| AGCATGCC | -0.204 |
| GGAAGTCA | 0.0584 |
| AAACGAGA | 0.0866 |
| GGGGTCAA | 0.00625 |
| AATGCTTA | -0.272 |
| GTCGATCA | 0.0568 |
| GGTTTCAA | 0.147 |
| GCCCGGTA | 0.179 |
| ACTTTCTC | 0.0338 |
| ATTTTCCG | 0.4 |
| CGTAAATA | 0.215 |
| ATTCGTTA | 0.122 |
| AATCTTGA | -0.134 |
| CGGACTGC | 0.11 |
| AATGCATG | 0.075 |
| ATTGAGCG | -0.0456 |
| AGTCTCAG | -0.104 |
| ATCTACTA | 0.209 |
| AAGCCATG | -0.121 |
| ATGTTAAC | 0.0547 |
| ACTGTTTA | 0.0919 |
| AACATAAG | 0.0636 |
| AACCCACC | -0.0459 |

Reformatted bar-delimited: part of the list above
Sequence | PBM E-score
GGGGTCAA | 0.00625
AATGCTTA | -0.272
GTCGATCA | 0.0568

(continued)

| Sequence | PBM E-score |
| --- | --- |
| CACTCAGG | -0.114 |
| GACACCGA | 0.133 |
| AGCAGCTA | 0.0536 |
| CCAATCGA | -0.185 |
| GATACTTA | 0.0721 |
| GATCCCCA | -0.14 |
| CGAATCTA | 0.0693 |
| TGGCAGAA | 0.0981 |
| CCCTGTTC | -0.144 |
| CAACTGGG | -0.257 |
| ATCTCGCG | 0.114 |
| GAGCACAC | -0.203 |
| CTTCCAAG | -0.101 |
| GTTGCATA | -0.0108 |
| GCAGGCCC | -0.246 |
| CTTCAACC | 0.0921 |
| ATATGGAC | -0.0784 |
| CCCATTCC | -0.258 |
| AAACTCCC | -0.0832 |
| AAGATTAG | 0.072 |
| TGAACTCA | 0.0189 |
| GCCCTGAA | 0.0123 |
| AATCGCTA | -0.0813 |
| CCTAAAGC | -0.138 |
| ACCCAACG | -0.0231 |

| Sequence | PBM E-score |
| --- | --- |
| GGGAGTAC | -0.23 |
| ATCCATAC | -0.0215 |
| ATGAAATA | 0.227 |
| GGGTAGAA | -0.0545 |
| AGCGCCCG | 0.113 |
| ACACCGTC | -0.0164 |
| CTAGTAGA | 0.185 |
| CTTGGGAA | 0.0588 |
| CACGGCCC | -0.0419 |
| AATAGAAC | 0.134 |
| CCGCGCCA | -0.0968 |
| CAGTTGAC | -0.0401 |
| GCGTTGAA | 0.12 |
| ATTTTCGA | 0.121 |
| GATGTCCC | -0.0325 |
| GCCTTAGC | 0.0575 |
| GTGGTCTA | -0.208 |
| GTCAGGAC | -0.129 |
| AACTAGAA | 0.0516 |
| CCTAACCC | -0.332 |
| ACGATGCT | -0.241 |
| CAATGGTC | -0.036 |
| CAAATCCG | 0.194 |
| TCAGTGCA | -0.126 |
| AAAGGTTC | 0.028 |

| Sequence | PBM E-score |
| --- | --- |
| AAGGGAAG | -0.194 |
| CACAACAG | -0.207 |
| CTTGGTCC | 0.0693 |
| AGAATACG | 0.0301 |
| GAACACAC | 0.00219 |
| CAGCAGGA | -0.153 |
| AACCGGGA | 0.188 |
| AGAAGTTC | -0.0981 |
| CTATACGC | -0.103 |
| CTGCTTCC | -0.197 |
| GTCGAAAA | 0.108 |
| ATAATGGC | -0.0646 |
| CAACCTAG | -0.138 |
| AGCCTGGG | -0.0738 |
| AATGCTCC | 0.0347 |
| CAGTCCCA | -0.171 |
| ATCCGGGG | 0.262 |
| AATTAACA | 0.212 |
| TGGCGACA | -0.164 |
| TAAAACTA | 0.146 |
| CACTGCCA | 0.0082 |
| AAGGTGTA | -0.105 |
| CCATGCAA | 0.0458 |
| AAAGCATT | 0.121 |
| ACAACTCC | 0.00874 |

4 entries drawn at random from the list so far:

| Sequence | PBM E-score |
| --- | --- |
| ATCCGGGG | 0.262 |
| TAAAACTA | 0.146 |
| AATTAACA | 0.212 |
| AACCGGGA | 0.188 |

Exported bar-delimited: entries from further up.
Sequence | PBM E-score
CACAACAG | -0.207
CTTGGTCC | 0.0693

Next entries follow:

| Sequence | PBM E-score |
| --- | --- |
| GCGACTAC | -0.158 |
| ACTGGCTG | -0.0911 |
| CGATCTAA | 0.0794 |
| GGGGGACC | -0.381 |
| AACCCAGT | -0.129 |
| AGAATGAT | 0.144 |
| AAGTACTC | -0.147 |
| CAATAGTA | 0.0725 |
| AAATCCAG | 0.0647 |
| GTTGTCCA | -0.058 |
| GTTCGTAA | 0.0976 |
| AGCTGTGA | -0.0495 |
| CTTTAGTA | -0.0339 |
| GCTTAACA | 0.0553 |
| CGGCCCCA | -0.282 |
| ATCGAGCC | 0.113 |
| TCGGTGCA | 0.0881 |
| CTCACATA | -0.226 |
| TAGTGGAA | -0.038 |
| TGAAGGCA | -0.0712 |
| CATGCATA | -0.0575 |
| CGGCGATC | 0.312 |
| CCGGCAGA | 0.265 |
| GCGCCGGA | 0.355 |
| GACCAGGC | -0.315 |

| Sequence | PBM E-score |
| --- | --- |
| ACGCTTAT | -0.192 |
| AGATTAGC | 0.00851 |
| GTGCAGAA | 0.0359 |
| AGAGACAG | -0.128 |
| GAGTCCTA | -0.205 |
| ATAGGGTA | -0.0831 |
| CTTGCGAC | -0.0558 |
| AACTCCAC | 0.0381 |
| AAGGTCAA | -0.199 |
| GCAGAGCA | 0.0245 |
| ATTTGGAA | 0.124 |
| TAATTCCA | 0.0901 |
| CTAGGATC | -0.109 |
| CATAGGCA | -0.237 |
| CGCCTAGA | -0.154 |
| GGGAAGTA | 0.0585 |
| GGTCCTAA | 0.117 |
| TCCCCGAA | 0.12 |
| CGCCCACG | -0.0869 |
| CCGCTGTA | 0.0352 |
| CAATCGCA | -0.0595 |
| ACGACTCA | -0.152 |
